Publication doi:10.1101/256560
Results are given in words; binding and its absence hold for the method and conditions named. Some results given as binding are weak or reduced against the parent protein; the word gives no strength.

Biological target: T1, EzrA^Spn (S. pneumoniae) (UniProt Q8DQE5)
T1 sequence: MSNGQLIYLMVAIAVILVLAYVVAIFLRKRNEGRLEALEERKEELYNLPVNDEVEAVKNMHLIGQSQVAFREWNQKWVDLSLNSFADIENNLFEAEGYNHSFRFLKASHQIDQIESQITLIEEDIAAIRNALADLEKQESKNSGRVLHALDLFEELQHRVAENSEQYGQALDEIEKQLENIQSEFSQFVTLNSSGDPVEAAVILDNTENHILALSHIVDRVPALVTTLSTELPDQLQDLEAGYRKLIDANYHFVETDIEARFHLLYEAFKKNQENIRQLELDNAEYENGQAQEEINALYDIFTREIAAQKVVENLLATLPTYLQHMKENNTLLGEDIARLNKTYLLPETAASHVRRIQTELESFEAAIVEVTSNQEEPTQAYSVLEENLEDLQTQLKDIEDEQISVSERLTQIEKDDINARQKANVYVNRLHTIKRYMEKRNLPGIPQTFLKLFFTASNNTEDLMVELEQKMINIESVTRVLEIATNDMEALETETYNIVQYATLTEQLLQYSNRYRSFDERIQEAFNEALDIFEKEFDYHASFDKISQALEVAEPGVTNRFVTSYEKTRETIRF
Experiment: two-hybrid

Substance: CozE^Spn (from UniProt A0ACD7PR02 1-369)
- binding: binds
